PubChem BioAssay AID1053208 – Peter MacCallum Cancer Centre, 2014

- Purpose: 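Synthetic lethal interactions between gene loss and doxorubicin in osteosarcoma cells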 (primary screen)
- System: mouse osteosarcoma cells, early-passage culture from an engineered mouse model of fibroblastic bone tumour
- Reagents: siRNA pool against mouse genes, 40 nM
- Time to read-out: about 120 h (48 h before drug, then 72 h with drug)
- Treatment: doxorubicin 100 nM for 72 h, roughly 30-40% inhibitory dose
- Measured: 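Viability read as ATP luminescence after 72 h of 100 nM doxorubicin or none, duplicate wells averaged, scaled to non-targeting siRNA, then expressed as robust z-scores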
- Scale: viability z-score with doxorubicin and doxorubicin viability vs non-targeting: higher = more viable cells under doxorubicin; viability z-score without drug: higher = more viable cells with knock-down alone; z-score of drug to no-drug ratio: higher = less drug sensitisation by knock-down
- Rule for the call: 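Called active if knock-down leaves viability unchanged without drug (z within -2 to 2) but lowers it with doxorubicin (z at or under -2)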
Here is a random part of about 17,000 deposited reagents. Of all reagents, 788 (4.7%) got an active call. 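Calls rest on z-score classes alone; an extra cut-off of viability at most 70% of control was not applied to them.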 Unmarked entries are inactive. No sequences are given here.

no.	target gene	combined z-score class	viability z-score with doxorubicin	viability z-score without drug	z-score of drug to no-drug ratio	doxorubicin viability vs non-targeting
1	Haus2	no change with or without drug	1.24	0.51	1.01	1.05
2	Rhcg	no change with or without drug	-0.67	1.52	-1.46	0.88
3	Polr3gl	no change with or without drug	-0.67	0.84	-1.12	0.88
4	Vpreb3	no change with or without drug	1.01	-0.51	1.57	1.03
5	Egln2	no change with or without drug	-1.01	0.34	-1.12	0.85
6	Ms4a4b	high cell count with doxorubicin only	2.47	1.85	1.24	1.16
7	Ccdc186	no change with or without drug	0.45	0.51	0.22	0.98
8	Igsf11	no change with or without drug	-0.9	0.17	-0.9	0.86
9	Pnmt	no change with or without drug	0	-0.17	0.22	0.94
10	Retreg2	no change with or without drug	0.56	0.51	0.34	0.99
11	Or8c16	no change with or without drug	0.22	0	0.34	0.96
12	Idh2	no change with or without drug	-1.8	-0.84	-1.24	0.78
13	Enox2	no change with or without drug	-0.45	0.17	-0.45	0.9
14	Sugt1	no change with or without drug	-1.8	-0.51	-1.46	0.78
15	Astn2	no change with or without drug	1.12	-0.34	1.57	1.04
16	Mccc1	no change with or without drug	-0.45	-1.01	0.34	0.9
17	Adamts12	no change with or without drug	0.34	0.34	0.22	0.97
18	Rtn4	high cell count with doxorubicin only	2.02	1.85	0.9	1.12
19	Gtf2h1	no change with or without drug	0.67	-0.84	1.46	1
20	Aqp8	no change with or without drug	-1.35	-1.18	-0.56	0.82
21	Lrrc56	no change with or without drug	0	0.67	-0.34	0.94
22	Mymk	no change with or without drug	1.24	1.52	0.34	1.05
23	Mrpl53	no change with or without drug	-1.35	-1.18	-0.56	0.82
24	Ccdc126	no change with or without drug	0.9	0.84	0.45	1.02

A few values from the list.
Entry for Mccc1 in “doxorubicin viability vs non-targeting”: 0.9
Under “combined z-score class”, Or8c16 reads no change with or without drug
For “viability z-score without drug”, Egln2 is entered as 0.34
Under “combined z-score class”, Enox2 is entered as no change with or without drug
Adamts12, viability z-score without drug → 0.34
Result of Pnmt in “viability z-score with doxorubicin”: 0

Continued:
no.	target gene	combined z-score class	viability z-score with doxorubicin	viability z-score without drug	z-score of drug to no-drug ratio	doxorubicin viability vs non-targeting
25	Kdm5c	no change with or without drug	-0.45	0.51	-0.67	0.9
26	Fip1l1	no change with or without drug	0.9	0.51	0.67	1.02
27	Sh2d2a	no change with or without drug	-1.12	0.34	-1.24	0.84
28	Prr15	no change with or without drug	0.11	0.84	-0.34	0.95
29	Adcy6	no change with or without drug	0.22	-0.17	0.45	0.96
30	Tnrc18	no change with or without drug	0.34	0.84	-0.11	0.97
31	Nherf2	no change with or without drug	-0.67	-0.84	0	0.88
32	Sgpp1	no change with or without drug	-1.35	-1.52	-0.34	0.82
33	Rsl24d1	low cell count without drug only	-0.67	-3.2	2.02	0.88
34	Prkar1a	no change with or without drug	0.56	-1.52	1.91	0.99
35	Htatsf1	no change with or without drug	0.79	-1.52	2.14	1.01
36	Oas1d	no change with or without drug	-1.35	-1.69	-0.22	0.82
37	Coa6	no change with or without drug	-1.91	1.52	-2.7	0.77
38	Slc10a2	no change with or without drug	-0.45	-1.18	0.45	0.9
39	Tex47	no change with or without drug	-0.9	-0.34	-0.67	0.86
40	Mipep	no change with or without drug	-0.11	0	0	0.93
41	Mprip	no change with or without drug	0	-0.17	0.22	0.94
42	Mbd2	no change with or without drug	0.11	-0.84	0.9	0.95
43	Nit2	no change with or without drug	-0.9	-0.17	-0.79	0.86
44	Vmn1r212	high cell count with and without drug	4.95	3.2	2.59	1.38
45	Gtsf2	no change with or without drug	0	-0.84	0.67	0.94
46	Or13a27	no change with or without drug	-0.67	-0.34	-0.34	0.88
47	Adcy7	no change with or without drug	0.45	-0.34	0.79	0.98
48	Cfap36	high cell count with and without drug	2.02	2.19	0.67	1.12
49	Armc9	high cell count without drug only	-1.57	2.53	-2.81	0.8
50	Nefh	no change with or without drug	1.01	1.52	0.11	1.03
51	Kif18a	no change with or without drug	0	0	0.11	0.94
52	Sin3a	low cell count without drug only	-1.57	-2.19	0	0.8
53	Eef1g	no change with or without drug	-0.9	-1.52	0.22	0.86
54	Arhgef15	no change with or without drug	0.22	-0.84	1.01	0.96
55	Trp53inp1	no change with or without drug	-0.9	0.17	-0.9	0.86
56	Sntb2	no change with or without drug	1.35	-1.18	2.47	1.06
57	Hmgcr	no change with or without drug	0.34	-0.34	0.67	0.97
58	Micu1	no change with or without drug	-1.24	-0.17	-1.12	0.83
59	Tor3a	no change with or without drug	0.9	0.17	0.9	1.02
60	Col6a6	no change with or without drug	-0.45	1.52	-1.24	0.9
61	Zpr1	no change with or without drug	0.56	-0.67	1.24	0.99
62	Osmr	no change with or without drug	-0.22	0.17	-0.22	0.92
63	Nudt1	no change with or without drug	0	-0.17	0.22	0.94
